Legend:
[1] = general procedure: Fmoc solid-phase peptide synthesis; chlorotrityl resin; TBTU/DIEA; details: whole synthesis, trifluoroacetate
[2] = general procedure: Fmoc solid-phase peptide synthesis; 2-chlorotrityl chloride resin (Iris Biotech), 0.85 mmol/g; TBTU/DIEA
[3] = late stage modification step, trifluoroacetate
[4] = coupling step, trifluoroacetate
[5] = cyclisation step, trifluoroacetate

Substance: [(3R)-N^2-(tert-Butoxycarbonyl)-3-hydroxy-L-leucyl]-L-leucyl-[N^5-(benzyloxycarbonyl)-D-ornithyl]-L-isoleucyl-[O^3-(tert-butyl)-L-allothreonyl]-glycyl-[N^4-trityl-L-asparaginyl]-[O^3-(tert-butyl)-L-serine]
- isolated yield [1]: 28.3% of theory

Substance: [N^2-(tert.-Butoxycarbonyl)-3-tert-butyl-D-alanyl]-[(3R)-3-amino-L-phenylalanyl]-[(3R)-3-hydroxy-L-leucyl]-L-leucyl-D-arginyl-L-isoleucyl-L-allothreonyl-glycyl-L-allothreonyl-L-serinate C^1.11-N^3.3-lactam hydrochloride
- purity (crude or final not stated) ([2]; coupling step, hydrochloride): purity 77%
- step yield ([2]; coupling step, hydrochloride): 69% of theory

Substance: {(3R)-3-Amino-L-phenylalanyl}-[(3R)-3-hydroxy-L-leucyl]-L-leucyl-(N^5-benzyloxycarbonyl-D-ornithyl)-L-isoleucyl-L-allothreonyl-glycyl-L-seryl-L-serine C^1.9-N^3.1-lactam
- step yield ([2]; late stage modification step, of theory from 400A, trifluoroacetate): 71% of theory
- purity (crude or final not stated) [2, 3]: 80% pure

Substance: {(3R)-3-Amino-L-phenylalanyl}-[(3R)-3-hydroxy-L-leucyl]-L-leucyl-(N^6-benzyloxycarbonyl-D-lysyl)-L-isoleucyl-L-allothreonyl-glycyl-L-seryl-L-serine C^1.9-N^3.1-lactam
- step yield ([2]; late stage modification step, of theory from 403A, trifluoroacetate): 92% of theory

Substance: {(3R)-3-Amino-L-phenylalanyl}-[(3R)-3-hydroxy-L-leucyl]-L-leucyl-[(2R)-2-amino-4-benzyloxycarbonylaminobutyryl]-L-isoleucyl-L-allothreonyl-glycyl-L-seryl-L-serine C^1.9-N^3.1-lactam
- step yield ([2]; late stage modification step, of theory from 402A, trifluoroacetate): 62% of theory
- purity (crude or final not stated) [2, 3]: 60% pure

Substance: {(3R)-3-Amino-N-[(benzyloxy)carbonyl]-4-(dimethylaminophenyl)-L-alanyl}-[(3R)-3-hydroxy-L-leucyl]-L-leucyl-D-arginyl-L-isoleucyl-L-allothreonyl-glycyl-[(3S)-3-hydroxy-L-asparaginyl]-L-serine bistrifluoroacetate tristrifluoroacetate
- crude purity (method not given) [2, 3]: about 70% pure
- step yield [2, 3]: 80% of theory

Substance: {(3R)-N-[(Benzyloxy)carbonyl]-3-[(tert-butoxycarbonyl)amino]-4-(dimethylamino-phenyl)-L-alanyl}-[(3R)-3-hydroxy-L-leucyl]-L-leucyl-D-arginyl-L-isoleucyl-L-allothreonyl-glycyl-[(3S)-3-hydroxy-L-asparaginyl]-L-serine bistrifluoroacetate
- step yield [2, 4]: 92% of theory

Substance: {(3R)-N^2-(tert-Butoxycarbonyl)-3-hydroxy-L-leucyl}-L-leucyl-D-arginyl-L-isoleucyl-{O^3-(tert-butyl)-L-allothreonyl}-glycyl-{N^4-trityl-L-asparaginyl}-[O^3-(tert-butyl)-L-serine]
- step yield [2, 3]: 61.2% of theory

Substance: {(3R)-N^2-[(9H-Fluoren-9-ylmethoxy)carbonyl]-3-[(tert-butoxycarbonyl)amino]-L-phenylalanyl}-[(3R)-3-hydroxy-L-leucyl]-L-leucyl-(N^6-benzyloxycarbonyl-D-lysyl)-L-isoleucyl-L-allothreonyl-glycyl-L-seryl-L-serine trifluoroacetate
- step yield [2, 4]: 21% of theory

Substance: {(3R)-N^2-[(9H-Fluoren-9-ylmethoxy)carbonyl]-3-[(tert-butoxycarbonyl)amino]-L-phenylalanyl}-[(3R)-3-hydroxy-L-leucyl]-L-leucyl-D-arginyl-L-isoleucyl-L-allothreonyl-glycyl-[(2S)-2-amino-4-benzyloxycarbonylaminobutyryl]-L-serine trifluoroacetate
- step yield [2, 4]: 27% of theory

Substance: {(3R)-N^2-[(9H-Fluoren-9-ylmethoxy)carbonyl]-3-[(tert-butoxycarbonyl)amino]-L-phenylalanyl}-[(3R)-3-hydroxy-L-leucyl]-L-leucyl-[(2R)-2-amino-4-benzyloxycarbonylaminobutyryl]-L-isoleucyl-L-allothreonyl-glycyl-L-seryl-L-serine trifluoroacetate
- final purity (method not given) [2, 4]: 60% pure
- step yield [2, 4]: 31% of theory

Substance: {(3R)-N^2-[(9H-Fluoren-9-ylmethoxy)carbonyl]-3-amino-L-phenylalanyl}-[(3R)-3-hydroxy-L-leucyl]-L-leucyl-(N^5-benzyloxycarbonyl-D-ornithyl)-L-isoleucyl-L-allothreonyl-glycyl-L-seryl-L-serine C^1.9-N^3.1-lactam trifluoroacetate
- cyclisation yield ([2]; cyclisation step, from 376A, trifluoroacetate): 48% of theory
- final purity (method not given) [2, 5]: 50% pure

Substance: {(3R)-N^2-[(9H-Fluoren-9-ylmethoxy)carbonyl]-3-amino-L-phenylalanyl}-[(3R)-3-hydroxy-L-leucyl]-L-leucyl-(N^6-benzyloxycarbonyl-D-lysyl)-L-isoleucyl-L-allothreonyl-glycyl-L-seryl L-serine bistrifluoroacetate
- step yield [2, 3]: 90% of theory

Substance: {(3R)-N^2-[(9H-Fluoren-9-ylmethoxy)carbonyl]-3-amino-L-phenylalanyl}-[(3R)-3-hydroxy-L-leucyl]-L-leucyl-(N^6-benzyloxycarbonyl-D-lysyl)-L-isoleucyl-L-allothreonyl-glycyl-L-seryl-L-serine C^1.9-N^3.1-lactam trifluoroacetate
- cyclisation yield ([2]; cyclisation step, from 379A, trifluoroacetate): 78% of theory
- final purity (method not given) [2, 5]: 64% pure

Substance: {(3R)-N^2-[(9H-Fluoren-9-ylmethoxy)carbonyl]-3-amino-L-phenylalanyl}-[(3R)-3-hydroxy-L-leucyl]-L-leucyl-D-arginyl-L-isoleucyl-L-allothreonyl-glycyl-[(2S)-2-amino-4-benzyloxycarbonylaminobutyryl]-L-serine C^1.9-N^3.1-lactam trifluoroacetate
- cyclisation yield ([2]; cyclisation step, from 369A, trifluoroacetate): 66% of theory
- final purity (method not given) [2, 5]: 58% pure

Substance: {(3R)-N^2-[(9H-Fluoren-9-ylmethoxy)carbonyl]-3-amino-L-phenylalanyl}-[(3R)-3-hydroxy-L-leucyl]-L-leucyl-[(2R)-2-amino-4-benzyloxycarbonylaminobutyryl]-L-isoleucyl-L-allothreonyl-glycyl-L-seryl-L-serine C^1.9-N^3.1-lactam trifluoroacetate
- cyclisation yield ([2]; cyclisation step, from 378A, trifluoroacetate): 85% of theory
- final purity (method not given) [2, 5]: 86% pure

Substance: {(3R)-N^2-[(Benzyloxy)carbonyl]-3-[(tert-butoxycarbonyl)amino]-L-phenylalanyl}-[(3R)-3-hydroxy-L-leucyl]-L-leucyl-D-arginyl-L-isoleucyl-L-allothreonyl-glycyl-[(3S)-3-hydroxy-L-asparaginyl]-L-serine trifluoroacetate
- step yield [2, 4]: 61.4% of theory

Substance: {(3R)-N^2-[(Benzyloxy)carbonyl]-3-amino-L-phenylalanyl}-[(3R)-3-hydroxy-L-leucyl]-L-leucyl-D-arginyl-L-isoleucyl-L-allothreonyl-glycyl-[(3S)-3-hydroxy-L-asparaginyl]-L-serine C^1.9-N^3.1-lactam trifluoroacetate
- cyclisation yield [2, 5]: 78.3% of theory

Substance: {(3R)-N^2-[(Benzyloxy)carbonyl]-3-amino-L-phenylalanyl}-[(3R)-3-hydroxy-L-leucyl]-L-leucyl-D-arginyl-L-isoleucyl-L-allothreonyl-glycyl-[(3S)-3-hydroxy-L-asparaginyl]-L-serine trifluoroacetate
- step yield [2, 3]: 87.1% of theory

Source: patent US8076285B2 (Aicuris GmbH & Co. KG, priority 2006, dated 2011)
